Measured values from article PMC6647430.
No constants are given. Whether binding was seen depends on the method and setting. Binding seen in cells or lysates may run through a third protein. Some entries that bind do so weakly or less than the wild type.

The chains behind the UniProt entries cited, without tags or fusion partners.
UniProt Q60987: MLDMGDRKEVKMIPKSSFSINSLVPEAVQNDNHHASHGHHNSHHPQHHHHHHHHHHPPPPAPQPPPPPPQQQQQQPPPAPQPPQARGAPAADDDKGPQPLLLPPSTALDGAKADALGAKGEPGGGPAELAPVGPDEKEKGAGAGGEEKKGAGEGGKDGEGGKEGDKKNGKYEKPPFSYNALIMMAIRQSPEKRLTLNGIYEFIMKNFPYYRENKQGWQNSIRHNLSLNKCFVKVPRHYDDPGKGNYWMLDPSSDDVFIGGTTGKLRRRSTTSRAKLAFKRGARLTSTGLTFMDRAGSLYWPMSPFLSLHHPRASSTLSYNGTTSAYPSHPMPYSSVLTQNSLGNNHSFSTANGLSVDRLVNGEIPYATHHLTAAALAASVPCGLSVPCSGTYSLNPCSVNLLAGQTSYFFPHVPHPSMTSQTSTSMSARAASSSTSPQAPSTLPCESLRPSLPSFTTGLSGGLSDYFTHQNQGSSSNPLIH

Assays:
[1] = molecular target: FOXG1-Au1 (Forkhead box G1, Au1-tagged) (UniProt Q60987); assay: co-IP; N2a cells expressing FOXG1-Au1 (FOXG1-HA as control) fractionated into cytoplasmic, nucleoplasmic and chromatin fractions; Au1-IP from the fractions, immunoblot with anti-Au1, anti-DDX5, anti-DROSHA, anti-DGCR8
[2] = molecular target: FOXG1-HA (Forkhead box G1, HA-tagged) (UniProt Q60987); assay: co-IP; HA- or Au1-tagged FOXG1 overexpressed in N2a cells; IP by the tag (anti-HA or anti-Au1), immunoblot with anti-DDX5, anti-DROSHA, anti-DGCR8; mock: FOXG1 with the other tag, untransfected or empty vector
[3] = molecular target: endogenous FOXG1 (Forkhead box G1) (mouse (endogenous in adult mouse hippocampus and E13.5 cortical tissue)) (UniProt Q60987); assay: co-IP; protein extracts of adult mouse hippocampus; IP of endogenous FOXG1 (anti-FOXG1) and of DDX5 (anti-DDX5), immunoblot with anti-FOXG1, anti-DDX5, anti-DROSHA, anti-DGCR8

binding [1]: binds
binding [2]: binds
binding [3]: binds
B1: DiGeorge syndrome critical region gene 8 (DGCR8) (protein, UniProt Q9EQM6 1-773)
chain: METYESPSPLPREPAGEAMMENRACPFQVLPHEQSPPPPLQTSSDAEVMDVGSGGDGQSEPPADDPFNFYGASLLSKGSFSKGRLLIDPNCSGHSPRTARHAPAVRKFSPDLKLLKDVKISVSFTESCRSKDRKVLYTGVERSTRPECGQLLSPVSGDVHACPFGGSVGNGVGLGGESADKKDEENELDQEKRVEYAVLDELEDFTDNLELDEEGTGGFTAKAIVQRDRVDEEALNFSYEDDFDNDVDALLEEGLCAPKKRRMEEKYGGDSDHPSDGETSVQPMMTKIKTVLKSRGRPPTEPLPDGWIMTFHNSGVPVYLHRESRVVTWSRPYFLGTGSIRKHDPPLSSIPCLHYKKMKDNEEREQNCDLAPSGEVSPVKPLGRSAELDFPLEEPDSMGGDSGSMDEKDPLGAEAAAGALGQVKAKVEVCKDESVDLEEFRNYLEKRFDFEQVTVKKFRTWAERRQFNREMKRKQAESERPILPANQKLITLSVQDAPTKKEFVINPNGKSEVCILHEYMQRVLKVRPVYNFFECENPSEPFGASVTIDGVTYGSGTASSKKLAKNKAARATLEILIPDFVKQTSEEKPKDSEELEYFNHISIEDSRVYELTSKAGLLSPYQILHECLKRNHGMGDTSIKFEVVPGKNQKSEYVMACGKHTVRGWCKNKRVGKQLASQKILQLLHPHVKNWGSLLRMYGRESSKMVKQETSDKSVIELQQYAKKNRPNLHILSKLQEEMKRLAAEREETRKKPKMSIVASAQPGGEPLCTVDV
